Laboratory results taken from PubChem BioAssay AID485314 (National Center for Advancing Translational Sciences (NCATS), 2010).
Screen size: about 340,000 compounds; about 4,500 (1.3%) were called active. The shares of active, inactive and inconclusive entries below differ from those in the screen. Calls follow the shape of the dose curve; as a rule, active = well fitted inhibition curve with a large enough effect; inconclusive = small, poorly fitted or top-dose-only effect, or another doubt; inactive = no such curve, though single readings can be large or run the other way. Potencies beside an inconclusive call are fits to weak or partial responses and may not hold up.

These compounds were tested against DNA polymerase beta (Homo sapiens) (UniProt P06746) (assay: qHTS Assay for Inhibitors of DNA Polymerase Beta). Conditions: Pol beta primer extension/strand displacement, fluorescence kinetic; activity change, negative = inhibition: at 114 µM (top of the series).
From the text: The base excision repair system in human cells is a target for therapeutic modulation of the response to irradiation treatment and DNA-damaging drugs. A key enzyme in this system is the bi-functional DNA polymerase known as DNA polymerase Beta (Pol Beta). The following is a homogeneous kinetic assay to study the primer extension and strand-displacement reaction catalyzed by pol beta.
A stepwise description of the 1536-well assay is shown in next Table. Three microliters of reagents (buffer in column 3 and 4 as negative control and 10 nM Pol beta in columns 1, 2, and 5-48) was dispensed into 1,536-well black solid-bottomed plate. Compounds (23 nL) were transferred via Kalypsys pin tool equipped with 1536-pin array (10 nL slotted pins, V&P Scientific, San Diego, CA). The plates were incubated for 15 min at room temperature, and 1 uL substrate (50 nM final concentration) were added to start the reaction and immediately read at 0 min read on Viewlux reader. The plate were further incubated for 10 min at room temperature, and then read on Viewlux again. Throughout the screen, reagent bottle and all liquid lines were chilled and made light-tight to minimize reagent degradation. All screening operations were performed on a fully integrated robotic system (Kalypsys, San Diego, CA) containing one RX-130 and two RX-90 anthropomorphic robotic arms (Staubli, Duncan, SC). Library plates were screened starting from the lowest and proceeding to the highest concentration, and a double-dipping step of the highest concentration was required to access higher concentrations of compounds. Vehicle-only plates, with DMSO being pin-transferred to the entire column 5-48 compound area, were inserted uniformly at the beginning and the end of each library in order to monitor for and record any shifts in the background, which can be affected by reagent dispensers or loss in enzyme activity overtime. Screening data were corrected, normalized, and concentration-effect relationships were derived by using publicly-available curve fitting algorithms developed in-house (http://ncgc.nih.gov/pub/openhts). A four parameter Hill equation was fitted to the concentration-response data by minimizing the residual error between the modeled and observed responses.
% is scaled to controls: 0 for no effect and ±100 for the full control effect; potency is read from the fitted curve at half-maximal effect.

Row | SMILES | Potency | activity change, negative = inhibition
1 | O=C(Nc1ccccc1)Nc1cccc(-c2cn3cccnc3n2)c1 | inconclusive: 14.1 µM [inhibitor, full curve, poor fit] | –
2 | Cc1ccc(C)c(N2N=C(C(=O)N(CC(C)C)c3c(N)n(Cc4ccccc4)c(=O)[nH]c3=O)CCC2=O)c1 | inconclusive: 63.1 µM [inhibitor, partial curve, poor fit] | –
3 | COc1ccccc1N1CCN(CCCNC(=O)c2cnn(-c3cccc(Cl)c3)c2C2CCN(C(=O)OC(C)(C)C)CC2)CC1 | – | inactive: -18.3%
4 | COc1ccc(NC(=O)CCS(=O)(=O)c2ccc(Br)s2)cc1 | active: 31.6 µM | –
5 | CCCc1cc(=O)oc2cc(OCC(=O)Nc3ccc(S(N)(=O)=O)cc3)ccc12 | active: 89.1 µM | –
6 | Cn1c(=O)c2ccccc2n(Cc2cccc(F)c2)c1=O | – | inactive: 26.7%
7 | COc1ccc(-c2cc(C(=O)N3CCc4ccccc4C3)no2)cc1OC | inconclusive: 0.316 µM [inhibitor, full curve, poor fit] | –
8 | CC1CCN(S(=O)(=O)c2ccc3c(ccn3CCC(=O)NCc3ccc(N(C)C)cc3)c2)CC1 | – | inactive: -2.55%
9 | O=C(O)C1C2CCCCC2=C2CCCCC2C1C(=O)O (stereo not given) | inconclusive: 89.1 µM [inhibitor, single point] | –
10 | CCNC(=S)NNC(=O)c1cc(-c2ccc(OCC)cc2)nc2ccccc12 | inconclusive: 20 µM [inhibitor, full curve, poor fit] | –
11 | O=C(Nc1ccc(NC(=O)c2cccs2)cc1Cl)c1ccco1 | inconclusive: 39.8 µM [inhibitor, single point] | –
12 | O=C(/C=C/c1ccc2c(c1)OCO2)c1ccco1 | inconclusive: 14.1 µM [inhibitor, partial curve, poor fit] | –
13 | CCCCCCCC#Cc1ccccc1/C=N/S(=O)c1ccc(C)cc1 (stereo not given) | – | inactive: 2.34%
14 | O=C(CSc1ccc(-c2nc3ccccc3[nH]2)cn1)Nc1ccc2c(c1)OCCO2 | active: 17.8 µM | –
15 | Cc1ccc(-c2nnc3ccccc3c2C(=O)Nc2ccccc2F)cc1 | – | inactive: 8.97%
16 | O=c1cc(-c2ccccc2)[nH]c2[nH]n(-c3ccccc3)c(=O)c12 | – | inactive: 21.2%
17 | CC1=C(C(=O)OCCC#N)C(c2cc3c(cc2Br)OCO3)NC(=O)N1 (stereo not given) | inconclusive: 0.141 µM [inhibitor, full curve, poor fit] | –
18 | COC1=C(Nc2ccc(O)cc2)C(=O)c2ccccc2C1=O | inconclusive: 79.4 µM [inhibitor, single point] | –
19 | COc1ccc(NC(=O)CCN2C(=O)[C@@H]3[C@H](C2=O)[C@H]2C=C[C@@H]3C2)cc1 | inconclusive: 70.8 µM [inhibitor, single point] | –
20 | Cc1cc2oc(=O)cc(CN3CCN(Cc4ccccc4)CC3)c2cc1O | inconclusive: 3.16 µM [inhibitor, single point] | –
21 | Cc1sc(-n2c(C)cc(/C=C3\SC(=S)NC3=O)c2C)c(C#N)c1C | active: 31.6 µM | –
22 | CC1CCN(S(=O)(=O)c2nnc(NC(=O)c3cccc(Br)c3)s2)CC1 | – | inactive: 0.689%
23 | Cc1ccc(-c2nc(N)n(C(=O)Cc3ccccc3)n2)cc1 | inconclusive: 89.1 µM [inhibitor, single point] | –

From entry 22 to 23, copied from above:
Row | SMILES | Potency | activity change, negative = inhibition
22 | CC1CCN(S(=O)(=O)c2nnc(NC(=O)c3cccc(Br)c3)s2)CC1 | – | inactive: 0.689%
23 | Cc1ccc(-c2nc(N)n(C(=O)Cc3ccccc3)n2)cc1 | inconclusive: 89.1 µM [inhibitor, single point] | –

The list continues:

Row | SMILES | Potency | activity change, negative = inhibition
24 | Cc1nn(C)cc1-c1n[nH]c(=S)n1-c1ccc(Cl)cc1 | inconclusive: 100 µM [inhibitor, single point] | –
25 | CC1=C(c2ccc(Cl)cc2)S(=O)(=O)N=C1N1CCC(C(=O)NCc2ccccc2F)CC1 | inconclusive: 22.4 µM [inhibitor, partial curve, poor fit] | –
26 | COc1ccc(CCNc2nc3c(-c4cccc(C)c4)nnn3c3ccccc23)cc1OC | – | inactive: -4.27%
27 | CCCCC#Cc1nc(N)c2ncn([C@@H]3O[C@H](C(=O)NCC)[C@@H](O)[C@H]3O)c2n1 | – | inactive: 11% [at 57.1 µM]
28 | COc1ccccc1NC(=O)CSc1nc(-c2ccccc2F)nc2cc(=O)[nH]n12 | inconclusive: 2 µM [inhibitor, partial curve, poor fit] | –
29 | CC(C)(C)c1ccc(C(=O)N2CCC(c3nc4ccccc4o3)CC2)cc1 | – | inactive: -22.1%
30 | COC(=O)c1ccc2c(c1)C(C)(C)C(/C=C/c1ccccc1O)=[N+]2C | inconclusive: 39.8 µM [inhibitor, single point] | –
31 | CN1CCN(C(=O)c2ccc3c(c2)NC(=O)C(C)(C)O3)CC1 | inconclusive: 2 µM [inhibitor, full curve, poor fit] | –
32 | CC1=C(C#N)C(=O)NC(=O)/C1=C\c1ccc(-c2ccc(C)cc2[N+](=O)[O-])o1 | active: 31.6 µM | –
33 | Cc1cccc(N2CCN(C(=S)NCc3ccco3)CC2)c1C | inconclusive: 89.1 µM [inhibitor, single point] | –
34 | COc1ccc(CNC(=O)Cn2c(=O)cc(-c3ccccc3)c3c(C)nn(C)c32)cc1 | – | inactive: 27.6%
35 | Cc1cccc(N2CCN(C(=O)Cn3nc(Cc4cccnc4)c4ccccc4c3=O)CC2)c1C | – | inactive: 31.1%
36 | CC(C)(C)c1ccc(-c2nc(SCC(=O)Nc3ccccc3F)n3[nH]c(=O)cc3n2)cc1 | inconclusive: 44.7 µM [inhibitor, single point] | –
37 | CC(CCc1ccc(O)cc1)NCCc1ccc(O)c(O)c1 (stereo not given) | – | inactive: 6.08% [at 57.1 µM]
38 | O=C(CN1CCN(S(=O)(=O)c2cc(Cl)ccc2Cl)CC1)c1ccc(O)c(O)c1 | active: 3.16 µM | –
39 | Cc1onc(-c2ccccc2)c1C(=O)OCC(=O)c1ccccc1 | inconclusive: 89.1 µM [inhibitor, single point] | –
40 | CC1(C)C(=O)Nc2ccccc2N1C(=O)CN1C(=O)NC(CCc2ccccc2)C1=O (stereo not given) | inconclusive: 3.98 µM [inhibitor, full curve] | –
41 | COc1cccc(CNC(=O)c2cnc(N3CCCCC3)c3ccccc23)c1 | – | inactive: 0.284%
42 | CCOC(=O)C1C(c2ccccc2)C(C(=O)OCC)S(=O)(=O)C(CCN(CC)CC)S1(=O)=O (stereo not given) | inconclusive: 89.1 µM [inhibitor, single point] | –
43 | COc1ccc(OCC(=O)NNc2c3ccccc3nc3ccccc23)cc1 | inconclusive: 15.8 µM [inhibitor, full curve, poor fit] | –
44 | COc1cc(Br)c(Br)cc1N | – | inactive: 32.9%
45 | CCc1ccc(N=C2NC(=O)/C(=C/c3ccc(OCC(=O)O)cc3)S2)cc1 | active: 39.8 µM | –
